Experimental data reported in the supplement of paper PMC12823440, “Inhibitors supercharge kinase turnover through native proteolytic circuits” (Nature, 2025).
This is one part of the list. Hit calls seldom repeat between salt and free forms of one compound.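 Kinases were expressed as nanoluciferase fusions in K562 cells and luminescence was read every 4 h between 2 and 18 h as percent of control, DMSO set to 100% and a positive control to 0%. A time point counts as decreased when the signal drops significantly (2 sigma). The hit call is the authors' own, does not follow from the count of time points alone, and its rule is not shown.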

Protein sequences, listed by entry. Tags and fused reporters are not part of them. Lines headed by an entry give the natural chain unless they say otherwise; changes in a name come on top.
UniProt P07949, whole entry, looked up: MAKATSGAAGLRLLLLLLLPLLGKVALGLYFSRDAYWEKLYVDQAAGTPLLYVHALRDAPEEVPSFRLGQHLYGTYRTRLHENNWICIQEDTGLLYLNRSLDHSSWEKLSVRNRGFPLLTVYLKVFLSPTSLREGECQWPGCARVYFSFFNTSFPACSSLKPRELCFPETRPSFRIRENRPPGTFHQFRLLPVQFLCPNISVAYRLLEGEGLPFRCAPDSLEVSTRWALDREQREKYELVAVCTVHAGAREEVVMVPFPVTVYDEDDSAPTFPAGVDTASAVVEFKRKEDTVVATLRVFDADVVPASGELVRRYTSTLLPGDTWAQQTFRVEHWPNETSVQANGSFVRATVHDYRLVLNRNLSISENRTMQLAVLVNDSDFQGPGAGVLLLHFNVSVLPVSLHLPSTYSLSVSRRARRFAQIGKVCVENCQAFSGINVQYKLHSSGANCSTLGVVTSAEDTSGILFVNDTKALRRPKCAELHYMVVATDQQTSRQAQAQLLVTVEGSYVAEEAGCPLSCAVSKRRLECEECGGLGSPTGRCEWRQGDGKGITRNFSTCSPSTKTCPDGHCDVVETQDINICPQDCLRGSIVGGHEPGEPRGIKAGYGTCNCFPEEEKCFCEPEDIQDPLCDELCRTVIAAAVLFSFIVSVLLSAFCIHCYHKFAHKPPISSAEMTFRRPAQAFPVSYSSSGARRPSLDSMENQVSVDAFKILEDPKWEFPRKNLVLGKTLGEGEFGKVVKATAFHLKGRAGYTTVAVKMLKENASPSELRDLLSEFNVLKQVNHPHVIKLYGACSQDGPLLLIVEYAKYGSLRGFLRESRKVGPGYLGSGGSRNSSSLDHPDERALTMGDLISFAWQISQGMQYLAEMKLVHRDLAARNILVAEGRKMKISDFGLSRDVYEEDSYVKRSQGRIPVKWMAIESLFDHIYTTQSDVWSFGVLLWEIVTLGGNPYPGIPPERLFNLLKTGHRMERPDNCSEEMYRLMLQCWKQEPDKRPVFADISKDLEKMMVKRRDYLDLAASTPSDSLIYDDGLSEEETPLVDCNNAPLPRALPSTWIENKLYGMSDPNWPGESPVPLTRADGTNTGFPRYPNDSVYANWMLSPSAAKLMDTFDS
UniProt P07949, whole entry M918T, looked up: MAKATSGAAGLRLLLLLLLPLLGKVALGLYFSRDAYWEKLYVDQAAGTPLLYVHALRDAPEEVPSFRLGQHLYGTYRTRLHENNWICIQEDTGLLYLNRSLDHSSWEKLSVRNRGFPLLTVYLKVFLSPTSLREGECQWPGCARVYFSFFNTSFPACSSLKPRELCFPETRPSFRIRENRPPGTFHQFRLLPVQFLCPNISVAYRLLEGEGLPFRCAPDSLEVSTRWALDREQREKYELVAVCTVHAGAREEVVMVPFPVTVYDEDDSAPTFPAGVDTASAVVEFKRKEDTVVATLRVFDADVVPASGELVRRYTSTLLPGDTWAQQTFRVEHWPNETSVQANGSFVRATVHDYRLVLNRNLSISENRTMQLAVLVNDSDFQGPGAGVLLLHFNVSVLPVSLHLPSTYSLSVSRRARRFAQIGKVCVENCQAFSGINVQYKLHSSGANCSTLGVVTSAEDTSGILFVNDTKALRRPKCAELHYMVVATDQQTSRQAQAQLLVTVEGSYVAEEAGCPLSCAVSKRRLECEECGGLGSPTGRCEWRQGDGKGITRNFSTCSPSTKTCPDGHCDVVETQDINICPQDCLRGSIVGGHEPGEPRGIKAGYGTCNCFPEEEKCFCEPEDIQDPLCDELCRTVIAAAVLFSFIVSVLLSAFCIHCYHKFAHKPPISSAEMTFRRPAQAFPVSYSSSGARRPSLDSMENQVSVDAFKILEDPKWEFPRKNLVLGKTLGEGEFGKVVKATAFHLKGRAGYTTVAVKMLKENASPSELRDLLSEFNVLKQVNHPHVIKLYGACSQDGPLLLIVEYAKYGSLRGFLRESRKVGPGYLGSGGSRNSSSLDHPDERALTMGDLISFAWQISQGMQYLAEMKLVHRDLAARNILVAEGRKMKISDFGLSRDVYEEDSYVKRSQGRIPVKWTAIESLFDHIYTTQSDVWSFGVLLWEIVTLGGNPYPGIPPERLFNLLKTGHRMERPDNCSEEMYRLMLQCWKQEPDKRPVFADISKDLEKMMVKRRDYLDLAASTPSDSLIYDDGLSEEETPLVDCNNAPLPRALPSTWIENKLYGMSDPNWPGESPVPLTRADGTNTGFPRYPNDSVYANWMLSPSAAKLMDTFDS
UniProt Q15418, whole entry: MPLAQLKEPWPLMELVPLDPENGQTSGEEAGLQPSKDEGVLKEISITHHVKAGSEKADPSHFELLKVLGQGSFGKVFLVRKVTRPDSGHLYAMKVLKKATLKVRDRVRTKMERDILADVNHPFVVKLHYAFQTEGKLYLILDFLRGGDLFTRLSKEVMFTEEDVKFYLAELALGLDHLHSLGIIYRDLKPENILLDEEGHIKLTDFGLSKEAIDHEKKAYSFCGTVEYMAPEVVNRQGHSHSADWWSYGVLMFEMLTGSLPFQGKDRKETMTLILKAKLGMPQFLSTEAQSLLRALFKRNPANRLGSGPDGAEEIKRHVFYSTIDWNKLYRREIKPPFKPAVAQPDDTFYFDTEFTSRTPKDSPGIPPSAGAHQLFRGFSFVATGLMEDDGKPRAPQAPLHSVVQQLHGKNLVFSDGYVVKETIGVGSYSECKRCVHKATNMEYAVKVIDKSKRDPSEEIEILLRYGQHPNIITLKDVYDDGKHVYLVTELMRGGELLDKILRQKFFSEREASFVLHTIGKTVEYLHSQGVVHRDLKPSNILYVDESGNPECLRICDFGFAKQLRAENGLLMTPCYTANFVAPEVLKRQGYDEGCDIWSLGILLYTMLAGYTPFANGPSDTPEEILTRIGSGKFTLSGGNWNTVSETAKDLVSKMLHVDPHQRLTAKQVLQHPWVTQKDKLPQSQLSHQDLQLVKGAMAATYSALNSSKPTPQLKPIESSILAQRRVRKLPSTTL
UniProt Q9NYA1, whole entry: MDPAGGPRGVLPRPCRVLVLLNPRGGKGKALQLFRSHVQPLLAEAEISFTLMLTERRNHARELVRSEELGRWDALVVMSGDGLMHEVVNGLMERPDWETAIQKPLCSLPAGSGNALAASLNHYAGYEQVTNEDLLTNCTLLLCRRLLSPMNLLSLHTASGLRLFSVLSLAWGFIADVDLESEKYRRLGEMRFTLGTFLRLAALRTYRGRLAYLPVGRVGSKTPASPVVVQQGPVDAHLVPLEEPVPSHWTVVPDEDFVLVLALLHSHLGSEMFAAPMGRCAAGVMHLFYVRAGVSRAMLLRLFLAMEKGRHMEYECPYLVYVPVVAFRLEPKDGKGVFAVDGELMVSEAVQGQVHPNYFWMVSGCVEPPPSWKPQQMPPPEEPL
UniProt Q9Y6E0: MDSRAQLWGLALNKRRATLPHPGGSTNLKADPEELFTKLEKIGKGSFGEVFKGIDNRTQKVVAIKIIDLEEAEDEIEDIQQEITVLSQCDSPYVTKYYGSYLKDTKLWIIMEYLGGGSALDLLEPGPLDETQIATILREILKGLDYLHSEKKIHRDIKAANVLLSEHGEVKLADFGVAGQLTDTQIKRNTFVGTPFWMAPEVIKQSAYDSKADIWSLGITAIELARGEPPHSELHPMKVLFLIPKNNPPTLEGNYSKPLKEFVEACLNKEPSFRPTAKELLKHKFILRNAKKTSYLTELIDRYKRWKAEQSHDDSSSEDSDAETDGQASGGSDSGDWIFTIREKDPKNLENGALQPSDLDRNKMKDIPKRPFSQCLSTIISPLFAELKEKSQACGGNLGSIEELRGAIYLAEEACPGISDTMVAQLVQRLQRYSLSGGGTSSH
UniProt Q15208: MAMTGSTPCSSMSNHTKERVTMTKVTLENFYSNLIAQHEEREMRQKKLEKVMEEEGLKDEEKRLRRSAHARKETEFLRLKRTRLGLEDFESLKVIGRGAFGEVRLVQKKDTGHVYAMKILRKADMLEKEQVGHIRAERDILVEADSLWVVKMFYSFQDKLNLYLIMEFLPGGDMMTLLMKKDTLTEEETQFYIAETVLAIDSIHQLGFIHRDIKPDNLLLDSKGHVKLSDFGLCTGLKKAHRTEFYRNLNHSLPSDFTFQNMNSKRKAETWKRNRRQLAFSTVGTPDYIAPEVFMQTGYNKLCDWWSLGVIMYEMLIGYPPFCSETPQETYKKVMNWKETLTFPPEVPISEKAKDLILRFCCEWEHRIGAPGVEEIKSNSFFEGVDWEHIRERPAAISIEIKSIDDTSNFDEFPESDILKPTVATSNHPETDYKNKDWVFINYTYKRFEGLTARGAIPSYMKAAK
UniProt P29597: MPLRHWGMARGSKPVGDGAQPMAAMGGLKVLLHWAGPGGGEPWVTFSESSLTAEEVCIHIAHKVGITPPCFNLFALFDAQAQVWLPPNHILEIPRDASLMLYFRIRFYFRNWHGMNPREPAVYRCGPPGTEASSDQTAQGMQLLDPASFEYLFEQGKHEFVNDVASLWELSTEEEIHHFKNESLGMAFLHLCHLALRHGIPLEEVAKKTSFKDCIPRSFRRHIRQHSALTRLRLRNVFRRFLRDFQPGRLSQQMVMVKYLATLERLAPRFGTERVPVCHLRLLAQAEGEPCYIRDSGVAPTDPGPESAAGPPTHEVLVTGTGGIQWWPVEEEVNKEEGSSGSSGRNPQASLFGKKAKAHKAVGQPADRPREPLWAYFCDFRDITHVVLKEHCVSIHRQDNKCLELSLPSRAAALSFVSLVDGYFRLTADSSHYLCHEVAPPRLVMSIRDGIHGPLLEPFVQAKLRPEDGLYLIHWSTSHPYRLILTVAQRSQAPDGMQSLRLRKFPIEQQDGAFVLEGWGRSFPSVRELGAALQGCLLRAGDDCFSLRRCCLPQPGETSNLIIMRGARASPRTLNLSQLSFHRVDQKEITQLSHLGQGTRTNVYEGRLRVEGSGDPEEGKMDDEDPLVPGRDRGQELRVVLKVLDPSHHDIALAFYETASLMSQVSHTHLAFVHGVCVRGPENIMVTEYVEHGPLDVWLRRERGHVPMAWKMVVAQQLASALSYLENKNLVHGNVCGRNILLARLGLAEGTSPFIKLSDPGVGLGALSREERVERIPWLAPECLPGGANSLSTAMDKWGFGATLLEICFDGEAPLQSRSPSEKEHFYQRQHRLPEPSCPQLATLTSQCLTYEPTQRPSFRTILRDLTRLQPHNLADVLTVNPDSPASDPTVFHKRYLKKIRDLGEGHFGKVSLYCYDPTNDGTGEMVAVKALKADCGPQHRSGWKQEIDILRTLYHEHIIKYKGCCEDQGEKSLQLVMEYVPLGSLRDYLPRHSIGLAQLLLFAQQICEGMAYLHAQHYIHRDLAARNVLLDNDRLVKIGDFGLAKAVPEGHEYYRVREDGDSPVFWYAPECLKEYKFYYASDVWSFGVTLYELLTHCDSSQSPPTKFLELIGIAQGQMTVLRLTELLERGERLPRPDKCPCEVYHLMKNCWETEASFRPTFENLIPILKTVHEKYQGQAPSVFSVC
UniProt Q6PHR2: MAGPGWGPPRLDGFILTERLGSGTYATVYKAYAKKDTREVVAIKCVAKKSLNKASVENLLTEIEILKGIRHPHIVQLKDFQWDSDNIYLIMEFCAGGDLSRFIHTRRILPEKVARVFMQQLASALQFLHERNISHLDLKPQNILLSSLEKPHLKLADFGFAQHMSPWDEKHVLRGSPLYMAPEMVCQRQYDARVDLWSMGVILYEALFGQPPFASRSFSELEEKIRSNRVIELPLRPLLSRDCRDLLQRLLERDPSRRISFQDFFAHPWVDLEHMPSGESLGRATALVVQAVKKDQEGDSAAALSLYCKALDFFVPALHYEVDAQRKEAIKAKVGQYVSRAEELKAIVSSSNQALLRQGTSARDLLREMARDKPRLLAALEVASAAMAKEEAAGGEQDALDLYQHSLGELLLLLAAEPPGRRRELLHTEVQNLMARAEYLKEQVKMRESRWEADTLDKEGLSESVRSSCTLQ
UniProt P07947, whole entry, looked up: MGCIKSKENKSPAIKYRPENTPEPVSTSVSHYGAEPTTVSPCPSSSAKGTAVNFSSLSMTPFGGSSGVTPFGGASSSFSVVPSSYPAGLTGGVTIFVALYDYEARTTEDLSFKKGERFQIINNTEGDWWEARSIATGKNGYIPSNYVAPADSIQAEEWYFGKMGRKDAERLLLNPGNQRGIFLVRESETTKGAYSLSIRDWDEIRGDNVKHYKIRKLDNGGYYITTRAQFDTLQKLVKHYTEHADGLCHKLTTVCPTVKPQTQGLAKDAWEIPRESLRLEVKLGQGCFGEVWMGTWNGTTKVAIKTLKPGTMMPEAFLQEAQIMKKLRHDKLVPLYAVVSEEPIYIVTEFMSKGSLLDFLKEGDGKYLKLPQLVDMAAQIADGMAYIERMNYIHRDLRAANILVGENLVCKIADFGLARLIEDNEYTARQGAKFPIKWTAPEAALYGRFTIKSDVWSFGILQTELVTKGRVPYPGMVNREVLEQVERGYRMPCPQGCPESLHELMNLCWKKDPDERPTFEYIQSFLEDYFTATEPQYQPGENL

Legend:
Settings in all cases: K562; 2-18 h
[1] = molecular target: RET (UniProt P07949); experiment: kinase-Nluc reporter destabilization hit call (1 = scored as downregulated) (binary); higher = compound decreases kinase abundance
[2] = molecular target: RET_M918T (clone: RET_mut) (UniProt P07949); experiment: as above
[3] = molecular target: RIOK1 (UniProt Q9BRS2); experiment: as above
[4] = molecular target: RIPK1 (UniProt Q13546); experiment: as above
[5] = molecular target: RIPK2 (UniProt O43353); experiment: as above
[6] = molecular target: ROR2 (UniProt Q01974); experiment: as above
[7] = molecular target: RPS6KA1 (UniProt Q15418); experiment: as above
[8] = molecular target: SPHK1 (UniProt Q9NYA1); experiment: as above
[9] = molecular target: SRC (UniProt P12931); experiment: as above
[10] = molecular target: STK24 (UniProt Q9Y6E0); experiment: as above
[11] = molecular target: STK38 (UniProt Q15208); experiment: as above
[12] = molecular target: SYK (UniProt P43405); experiment: as above
[13] = molecular target: TEC (UniProt P42680); experiment: as above
[14] = molecular target: TYK2 (UniProt P29597); experiment: as above
[15] = molecular target: ULK3 (UniProt Q6PHR2); experiment: as above
[16] = molecular target: YES1 (UniProt P07947); experiment: as above
[17] = molecular target: ZAK (UniProt Q9NYL2); experiment: as above
[18] = molecular target: ZAP70 (UniProt P43403); experiment: as above
[19] = molecular target: ABL1 (UniProt P00519); experiment: number of time points (of 5) at which kinase-Nluc abundance scored as decreased, DMSO-normalised (count); higher = more persistent destabilization
[20] = molecular target: AKT1 (UniProt P31749); experiment: as above

Structure (SMILES) | kinase-Nluc reporter destabilization hit call [1] | kinase-Nluc reporter destabilization hit call [2] | kinase-Nluc reporter destabilization hit call [3] | kinase-Nluc reporter destabilization hit call [4] | kinase-Nluc reporter destabilization hit call [5] | kinase-Nluc reporter destabilization hit call [6] | kinase-Nluc reporter destabilization hit call [7] | kinase-Nluc reporter destabilization hit call [8] | kinase-Nluc reporter destabilization hit call [9] | kinase-Nluc reporter destabilization hit call [10] | kinase-Nluc reporter destabilization hit call [11] | kinase-Nluc reporter destabilization hit call [12] | kinase-Nluc reporter destabilization hit call [13] | kinase-Nluc reporter destabilization hit call [14] | kinase-Nluc reporter destabilization hit call [15] | kinase-Nluc reporter destabilization hit call [16] | kinase-Nluc reporter destabilization hit call [17] | kinase-Nluc reporter destabilization hit call [18] | number of time points [19] | number of time points [20]
Cc1nc2c(NCc3cccc(S(C)(=O)=O)c3)nccn2c1-c1ccc(O)c(F)c1 (10 µM) | inactive: 0 | inactive: 0 | inactive: 0 | inactive: 0 | inactive: 0 | inactive: 0 | inactive: 0 | inactive: 0 | inactive: 0 | inactive: 0 | inactive: 0 | inactive: 0 | inactive: 0 | inactive: 0 | inactive: 0 | inactive: 0 | inactive: 0 | inactive: 0 | 0 | 0
COc1cc(N2CCC(N3CCN(C)CC3)CC2)ccc1Nc1ncnc(Nc2ccccc2S(=O)(=O)C(C)C)n1 (10 µM) | inactive: 0 | inactive: 0 | inactive: 0 | inactive: 0 | inactive: 0 | inactive: 0 | inactive: 0 | inactive: 0 | inactive: 0 | inactive: 0 | inactive: 0 | inactive: 0 | inactive: 0 | inactive: 0 | inactive: 0 | inactive: 0 | inactive: 0 | inactive: 0 | 0 | 0
CCCCC(=O)OCC(=O)[C@]1(O)Cc2c(O)c3c(c(O)c2[C@@H](O[C@H]2C[C@H](NC(=O)C(F)(F)F)[C@H](O)[C@H](C)O2)C1)C(=O)c1c(OC)cccc1C3=O [Valrubicin] (10 µM) | inactive: 0 | inactive: 0 | inactive: 0 | inactive: 0 | inactive: 0 | inactive: 0 | inactive: 0 | inactive: 0 | inactive: 0 | inactive: 0 | inactive: 0 | inactive: 0 | inactive: 0 | inactive: 0 | inactive: 0 | inactive: 0 | inactive: 0 | inactive: 0 | 0 | 0
C[C@@H]1CN(Cc2ccc(F)cc2)[C@@H](C)CN1C(=O)c1cc2c(C(=O)C(=O)N(C)C)cn(C)c2cc1Cl [Talmapimod] (10 µM) | inactive: 0 | inactive: 0 | inactive: 0 | inactive: 0 | inactive: 0 | inactive: 0 | inactive: 0 | inactive: 0 | inactive: 0 | inactive: 0 | inactive: 0 | inactive: 0 | inactive: 0 | inactive: 0 | inactive: 0 | inactive: 0 | inactive: 0 | inactive: 0 | 0 | 0
O=C(Nc1ccccc1C(=O)NC1CCCCNC1=O)c1cc2ccccc2s1 (stereo not given) (10 µM) | inactive: 0 | inactive: 0 | inactive: 0 | inactive: 0 | inactive: 0 | inactive: 0 | inactive: 0 | inactive: 0 | inactive: 0 | inactive: 0 | inactive: 0 | inactive: 0 | inactive: 0 | inactive: 0 | inactive: 0 | inactive: 0 | inactive: 0 | inactive: 0 | 0 | 0
Cn1cnc2c(F)c(Nc3ccc(Br)cc3F)c(C(=O)NOCCO)cc21 [Binimetinib] (10 µM) | inactive: 0 | inactive: 0 | inactive: 0 | inactive: 0 | inactive: 0 | inactive: 0 | inactive: 0 | inactive: 0 | inactive: 0 | inactive: 0 | inactive: 0 | inactive: 0 | inactive: 0 | inactive: 0 | inactive: 0 | inactive: 0 | inactive: 0 | inactive: 0 | 0 | 0
CN1CCN(Cc2ccc(-c3cnc4[nH]cc(-c5ccc6[nH]ccc6c5)c4c3)cc2)CC1 (2.5 µM) | inactive: 0 | inactive: 0 | inactive: 0 | inactive: 0 | inactive: 0 | inactive: 0 | inactive: 0 | inactive: 0 | inactive: 0 | inactive: 0 | inactive: 0 | inactive: 0 | inactive: 0 | inactive: 0 | inactive: 0 | inactive: 0 | inactive: 0 | inactive: 0 | 0 | 0
N#C/C(=C/c1ccc(O)c(O)c1)C(=O)N1CCc2ccccc21 [Tyrphostin AG 528] (10 µM) | inactive: 0 | inactive: 0 | inactive: 0 | inactive: 0 | inactive: 0 | inactive: 0 | inactive: 0 | inactive: 0 | inactive: 0 | inactive: 0 | inactive: 0 | inactive: 0 | inactive: 0 | inactive: 0 | inactive: 0 | inactive: 0 | inactive: 0 | inactive: 0 | 0 | 0
Nc1ccc(Sc2nc3ccccc3s2)c(Cl)c1 [KRAS inhibitor-9] (10 µM) | inactive: 0 | inactive: 0 | inactive: 0 | inactive: 0 | inactive: 0 | inactive: 0 | inactive: 0 | inactive: 0 | inactive: 0 | inactive: 0 | inactive: 0 | inactive: 0 | inactive: 0 | inactive: 0 | inactive: 0 | inactive: 0 | inactive: 0 | inactive: 0 | 0 | 0
